Measurements reported in PubChem BioAssay AID504808 (Drosophila RNAi Screening Center, 2011).
The screen tested about 21,000 reagents; below is an unselected part of those that have a named target and a result. Over the whole deposit, 18 (0.084%) are marked active. 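Raw counts without plate normalisation, one of two replicates; the ratio scores behind the calls were not deposited.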 Entries without a mark were called inactive. A plus sign joins genes that one reagent is predicted to hit. No sequences are given here. Not stated in the record: the amount of reagent, the time to read-out.

- Aim: 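Genes whose loss lifts activity of an E2F-responsive reporter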 (primary screen)
- Cells: Drosophila S2 cells
- Reagents: long dsRNA against Drosophila genes
- Read-out: 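Firefly luciferase driven by E2F sites, normalised to Renilla luciferase on the same minimal promoter, measured by plate reader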
- Direction: E2F firefly: higher = more E2F reporter activity; Renilla normaliser: higher = more normaliser reporter signal
- Hit rule: 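Called active if the normalised E2F reporter went up by over 50%; the cutoff is arbitrary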

| Gene | amplicon | E2F firefly, rep 1 | Renilla normaliser, rep 1 |
| --- | --- | --- | --- |
| Cp16 (GeneID 39001) | DRSC11119 | 96912 | 3973 |
| CG6048 (GeneID 31528) | DRSC18398 | 1.09e5 | 6101 |
| plum (GeneID 43197) | DRSC16054 | 1807 | 848 |
| Sfp93F (GeneID 8673963) | DRSC13505 | 48924 | 3299 |
| eIF4A (GeneID 33835) | DRSC03526 | 1.24e5 | 5382 |
| Mkrn1 (GeneID 44131) | DRSC11870 | 1.44e5 | 7101 |
| CG34253 (GeneID 5740501) | DRSC09531 | 1.25e5 | 3933 |
| Rab26 (GeneID 40359) | DRSC11837 | 72777 | 3237 |
| Rab26 (GeneID 40359) | DRSC11838 | 1.27e5 | 6723 |
| Rab26 (GeneID 40359) | DRSC11839 | 1.41e5 | 6608 |
| TAF1B (GeneID 41242) | DRSC16001 | 76378 | 3323 |
| ttm50 (GeneID 31266) | DRSC18587 | 1771 | 844 |
| Pif1A (GeneID 8674049) | DRSC12708 | 77096 | 4451 |
| Pif1A (GeneID 8674049) | DRSC14383 | 1.54e5 | 7485 |
| nan (GeneID 39571) | DRSC10551 | 1.55e5 | 7085 |
| CG11777 (GeneID 36108) | DRSC06081 | 1.50e5 | 5287 |
| St1 (GeneID 37742) | DRSC04504 | 84843 | 3571 |
| CG4133 (GeneID 33221) | DRSC00639 | 1.47e5 | 5272 |
| alpha-Est8 (GeneID 40899) | DRSC12620 | 1.36e5 | 6379 |
| Hdc (GeneID 36076) | DRSC07439 | 2729 | 233 |
| CG6628 (GeneID 39183) | DRSC10679 | 97693 | 5548 |
| CG14421 (GeneID 31285) | DRSC17918 | 1.33e5 | 5503 |
| CG14383 (GeneID 41593) | DRSC14841 | 1.09e5 | 5365 |
| mIF3 (GeneID 36335) | DRSC06290 | 95262 | 4649 |
| TwdlS (GeneID 43209) | DRSC14737 | 1.16e5 | 5947 |
| VhaAC45 (GeneID 35944) | DRSC07058 | 3081 | 209 |
| Tollo (GeneID 44497) | DRSC11305 | 1.61e5 | 7803 |
| CG7968 (GeneID 34802) | DRSC01903 | 94222 | 4759 |
| CG31872 (GeneID 34458) | DRSC02568 | 1.40e5 | 4480 |
| CG31872 (GeneID 34458) | DRSC02572 | 1.42e5 | 4815 |
| CG8067 (GeneID 36552) | DRSC07065 | 150 | 41 |
| CG31496 (GeneID 326145) | DRSC12547 | 56917 | 2854 |
| CG3618 (GeneID 40303) | DRSC11746 | 87894 | 3656 |
| CR11386 + CR33222 | DRSC17781 | 97788 | 5336 |
| CG17005 (GeneID 34249) | DRSC02556 | 1.56e5 | 5130 |
| Or59a (GeneID 37711) | DRSC04631 | 1.02e5 | 4702 |
| CG15019 (GeneID 38542) | DRSC08473 | 84647 | 3563 |
| RabX6 (GeneID 38084) | DRSC08223 | 88242 | 3773 |
| CG14969 (GeneID 38415) | DRSC08428 | 83464 | 3254 |
| Fum1 (GeneID 31605) | DRSC18344 | 7870 | 764 |
| dmpd (GeneID 36061) | DRSC06092 | 2931 | 243 |
| hop (GeneID 32080) | DRSC20340 | 1.17e5 | 6690 |
| CG32488 (GeneID 326220) | DRSC08549 | 54787 | 4219 |
| CG3651 (GeneID 35440) | DRSC03730 | 85942 | 3800 |
| fd96Ca (GeneID 43010) | DRSC16946 | 99241 | 5573 |
| Nplp3 (GeneID 59235) | DRSC09944 | 1.68e5 | 8076 |
| Fbxo42 (GeneID 37532) | DRSC04529 | 80328 | 3257 |
| caly (GeneID 36794) | DRSC07182 | 78908 | 3250 |
| Tango10 (GeneID 32125) | DRSC19807 | 8543 | 728 |
| CG6652 (GeneID 39905) | DRSC10686 | 73292 | 3525 |
| CG34325 (GeneID 32656) | DRSC19802 | 1.69e5 | 6651 |
| CG34325 (GeneID 32656) | DRSC20200 | 1.63e5 | 7076 |
| CG34370 (GeneID 5740565) | DRSC03913 | 1.28e5 | 5805 |
| CG34370 (GeneID 5740565) | DRSC04142 | 1.10e5 | 4388 |
| CG34370 (GeneID 5740565) | DRSC04143 | 93528 | 4005 |
| CG34370 (GeneID 5740565) | DRSC04144 | 90989 | 4221 |
| SCaMC (GeneID 39415) | DRSC10293 | 71560 | 3135 |
| SCaMC (GeneID 39415) | DRSC10415 | 1.11e5 | 5323 |
| Ctr1B + Poxm | DRSC16245 | 1.31e5 | 6655 |
| CG12384 (GeneID 36224) | DRSC06145 | 177 | 44 |
| AkhR (GeneID 33942) | DRSC03329 | 98494 | 3743 |
| CG17780 + CG17781 | DRSC15266 | 95450 | 6212 |
| CG8675 (GeneID 32716) | DRSC20117 | 1.52e5 | 5382 |
| eg (GeneID 40428) | DRSC11885 | 1.35e5 | 6385 |
| Svip (GeneID 317834) | DRSC08982 | 1.27e5 | 5111 |
| CG17105 (GeneID 34466) | DRSC02574 | 1.53e5 | 5397 |
| CG11842 (GeneID 43431) | DRSC14400 | 1956 | 972 |
| Polr3K + Tcs1 | DRSC05988 | 95919 | 3628 |
| CG10019 (GeneID 33600) | DRSC00279 | 1.31e5 | 4857 |
| Neos (GeneID 38795) | DRSC11235 | 90831 | 3656 |
| Dok (GeneID 31667) | DRSC18204 | 58067 | 4330 |
| dmt (GeneID 41180) | DRSC16932 | 1.48e5 | 12949 |
| CG13196 (GeneID 36250) | DRSC06321 | 1.05e5 | 4137 |
| NKAIN (GeneID 37979) | DRSC04531 | 78012 | 3418 |
| wnd (GeneID 40143) | DRSC09626 | 75924 | 3258 |
| wnd (GeneID 40143) | DRSC11046 | 86509 | 3428 |
| Map60 (GeneID 35991) | DRSC07464 | 3075 | 190 |
| Kdm3 (GeneID 41143) | DRSC16393 | 1.86e5 | 6574 |
| Vps37B (GeneID 40624) | DRSC12165 | 74675 | 3538 |
| Dr (GeneID 45285) | DRSC17002 | 78024 | 1044 |
| CG9570 (GeneID 33009) | DRSC20687 | 1.30e5 | 5658 |
| AttD (GeneID 42122) | DRSC16272 | 49561 | 3416 |
| Dus3 (GeneID 35264) | DRSC02059 | 1.02e5 | 4279 |
| Asx (GeneID 36612) | DRSC05924 | 1.06e5 | 3939 |

In a second layout: entries from further up
{"Gene": "Rab26 (GeneID 40359)", "amplicon": "DRSC11839", "E2F firefly, rep 1": 1.41e5, "Renilla normaliser, rep 1": 6608}
{"Gene": "TAF1B (GeneID 41242)", "amplicon": "DRSC16001", "E2F firefly, rep 1": 76378, "Renilla normaliser, rep 1": 3323}
{"Gene": "ttm50 (GeneID 31266)", "amplicon": "DRSC18587", "E2F firefly, rep 1": 1771, "Renilla normaliser, rep 1": 844}
{"Gene": "Pif1A (GeneID 8674049)", "amplicon": "DRSC12708", "E2F firefly, rep 1": 77096, "Renilla normaliser, rep 1": 4451}
{"Gene": "Pif1A (GeneID 8674049)", "amplicon": "DRSC14383", "E2F firefly, rep 1": 1.54e5, "Renilla normaliser, rep 1": 7485}
